Test results from patent US11622990B2, “VAP polypeptide and use thereof in preparation of drug for targeted diagnosis and treatment of tumor” (FUDAN UNIVERSITY, priority 2016, dated 2023).

Protein sequences, listed by entry. Tags and fused reporters are not part of them. Residues count along the entry.
UniProt P11021, 19-654: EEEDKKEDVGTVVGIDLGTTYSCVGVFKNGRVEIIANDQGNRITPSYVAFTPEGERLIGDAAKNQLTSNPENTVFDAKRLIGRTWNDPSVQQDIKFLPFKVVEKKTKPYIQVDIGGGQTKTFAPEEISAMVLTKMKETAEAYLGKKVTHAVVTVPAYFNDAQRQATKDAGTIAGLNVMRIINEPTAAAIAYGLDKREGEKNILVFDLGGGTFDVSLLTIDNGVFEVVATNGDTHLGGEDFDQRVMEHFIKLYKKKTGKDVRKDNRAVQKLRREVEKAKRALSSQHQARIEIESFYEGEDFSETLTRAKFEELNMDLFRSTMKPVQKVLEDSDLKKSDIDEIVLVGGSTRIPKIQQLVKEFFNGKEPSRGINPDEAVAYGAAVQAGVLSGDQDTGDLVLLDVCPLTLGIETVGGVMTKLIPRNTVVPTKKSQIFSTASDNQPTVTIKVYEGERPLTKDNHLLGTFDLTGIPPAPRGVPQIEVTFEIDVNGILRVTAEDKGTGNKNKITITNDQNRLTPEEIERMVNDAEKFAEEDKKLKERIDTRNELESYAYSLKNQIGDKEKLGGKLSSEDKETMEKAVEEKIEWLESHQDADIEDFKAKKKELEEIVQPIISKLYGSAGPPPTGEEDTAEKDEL

Target: GRP78 protein (Homo sapiens, UniProt P11021)
Test: Binding activity of VAP to GRP78 by surface plasmon resonance (Biacore)

With CC(C)[C@@H](NC(=O)[C@@H](C)NC(=O)[C@H]1CCCN1)C(=O)N[C@H](CCCNC(=N)N)C(=O)N[C@@H](C(=O)N[C@H](CC(N)=O)C(=O)N[C@H](CO)C(=O)O)[C@H](C)O [^DVAP] as the compound, how does the Kd read?
The Kd was 4.01 µM.
